These are yes or no findings as the source states them, for the method shown. Some binding calls cover weakened binding; strength is not graded here.
Target: wild-type integrin αIIbβ3, full-length, expressed on 293T cells (human) (UniProt P08514+P05106)
Experiment: FITC-fibrinogen binding to 293T transfectants, flow cytometry

By UniProt entry, the sequences of proteins in these tests, tags left out. Where a name states a change or a piece, a line headed by the entry shows the natural chain unless it says otherwise.
UniProt P08514: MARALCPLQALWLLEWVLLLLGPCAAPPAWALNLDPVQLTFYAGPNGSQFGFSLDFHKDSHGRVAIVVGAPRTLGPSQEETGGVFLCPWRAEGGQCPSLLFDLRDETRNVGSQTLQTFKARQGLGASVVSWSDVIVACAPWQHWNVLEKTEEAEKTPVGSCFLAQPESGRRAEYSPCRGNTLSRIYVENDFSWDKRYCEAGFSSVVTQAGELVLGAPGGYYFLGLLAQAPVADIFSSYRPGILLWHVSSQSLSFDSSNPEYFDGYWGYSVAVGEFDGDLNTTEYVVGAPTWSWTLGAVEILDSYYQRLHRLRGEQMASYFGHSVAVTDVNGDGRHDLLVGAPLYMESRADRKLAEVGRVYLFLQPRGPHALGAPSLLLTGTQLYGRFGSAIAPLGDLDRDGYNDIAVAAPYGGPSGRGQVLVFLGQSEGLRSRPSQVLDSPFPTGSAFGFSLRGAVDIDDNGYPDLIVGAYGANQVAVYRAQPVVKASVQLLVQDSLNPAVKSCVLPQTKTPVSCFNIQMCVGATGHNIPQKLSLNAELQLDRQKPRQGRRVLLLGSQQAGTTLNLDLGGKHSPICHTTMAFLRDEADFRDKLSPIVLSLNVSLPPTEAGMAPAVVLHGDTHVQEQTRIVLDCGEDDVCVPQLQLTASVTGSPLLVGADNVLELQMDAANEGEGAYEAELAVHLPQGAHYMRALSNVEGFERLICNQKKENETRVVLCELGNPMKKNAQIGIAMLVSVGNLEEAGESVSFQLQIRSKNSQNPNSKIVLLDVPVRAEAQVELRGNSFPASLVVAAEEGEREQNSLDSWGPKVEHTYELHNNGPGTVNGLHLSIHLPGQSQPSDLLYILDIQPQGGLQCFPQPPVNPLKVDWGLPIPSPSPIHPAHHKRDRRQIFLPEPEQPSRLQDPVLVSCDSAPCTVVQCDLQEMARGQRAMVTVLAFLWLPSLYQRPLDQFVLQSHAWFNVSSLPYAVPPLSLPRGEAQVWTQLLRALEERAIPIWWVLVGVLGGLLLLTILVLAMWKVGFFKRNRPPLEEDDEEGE
UniProt P05106: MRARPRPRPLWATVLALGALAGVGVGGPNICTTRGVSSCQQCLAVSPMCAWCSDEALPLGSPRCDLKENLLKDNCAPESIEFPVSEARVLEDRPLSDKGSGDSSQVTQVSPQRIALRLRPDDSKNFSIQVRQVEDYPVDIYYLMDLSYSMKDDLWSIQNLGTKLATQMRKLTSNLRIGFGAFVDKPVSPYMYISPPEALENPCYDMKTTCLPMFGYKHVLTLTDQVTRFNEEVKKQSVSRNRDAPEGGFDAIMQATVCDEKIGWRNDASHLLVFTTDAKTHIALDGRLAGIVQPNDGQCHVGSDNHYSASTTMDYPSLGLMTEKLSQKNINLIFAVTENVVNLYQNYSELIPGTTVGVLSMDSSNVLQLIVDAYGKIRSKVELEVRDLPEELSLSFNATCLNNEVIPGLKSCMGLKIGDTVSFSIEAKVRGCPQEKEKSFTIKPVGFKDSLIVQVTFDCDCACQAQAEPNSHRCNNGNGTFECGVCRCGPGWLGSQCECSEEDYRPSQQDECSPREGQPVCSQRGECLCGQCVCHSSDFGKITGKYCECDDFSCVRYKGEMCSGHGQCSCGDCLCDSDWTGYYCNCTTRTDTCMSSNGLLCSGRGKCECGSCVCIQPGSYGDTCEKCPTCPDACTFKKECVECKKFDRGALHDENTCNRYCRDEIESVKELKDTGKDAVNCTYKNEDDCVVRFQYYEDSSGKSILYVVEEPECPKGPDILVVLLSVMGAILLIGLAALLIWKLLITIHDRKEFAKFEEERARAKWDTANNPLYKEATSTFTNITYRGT
UniProt P02671: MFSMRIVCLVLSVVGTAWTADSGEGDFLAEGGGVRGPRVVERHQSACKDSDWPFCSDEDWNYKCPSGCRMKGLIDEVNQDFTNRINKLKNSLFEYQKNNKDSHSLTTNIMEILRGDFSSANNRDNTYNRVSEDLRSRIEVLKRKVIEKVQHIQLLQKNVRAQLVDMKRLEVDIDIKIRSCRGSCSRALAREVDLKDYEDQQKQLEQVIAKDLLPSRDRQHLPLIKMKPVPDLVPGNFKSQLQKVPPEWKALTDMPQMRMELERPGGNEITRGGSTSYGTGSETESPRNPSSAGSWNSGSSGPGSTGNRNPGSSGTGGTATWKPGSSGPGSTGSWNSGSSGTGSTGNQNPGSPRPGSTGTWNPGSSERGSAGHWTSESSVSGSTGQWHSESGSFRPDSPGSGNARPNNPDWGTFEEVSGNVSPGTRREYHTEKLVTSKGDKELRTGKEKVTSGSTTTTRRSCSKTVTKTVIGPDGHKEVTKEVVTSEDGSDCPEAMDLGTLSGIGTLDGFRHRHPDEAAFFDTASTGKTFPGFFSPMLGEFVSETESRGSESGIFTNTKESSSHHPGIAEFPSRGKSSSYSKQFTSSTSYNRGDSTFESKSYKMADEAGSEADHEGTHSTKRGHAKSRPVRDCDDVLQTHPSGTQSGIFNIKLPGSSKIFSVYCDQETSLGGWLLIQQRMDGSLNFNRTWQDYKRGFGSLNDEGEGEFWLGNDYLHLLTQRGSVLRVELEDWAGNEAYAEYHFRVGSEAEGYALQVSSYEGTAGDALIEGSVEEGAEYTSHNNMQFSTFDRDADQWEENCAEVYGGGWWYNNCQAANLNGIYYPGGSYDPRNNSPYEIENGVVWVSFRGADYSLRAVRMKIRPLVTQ

With “FITC-conjugated soluble fibrinogen (from UniProt P02671 20-629; P02675 31-491; P02679 27-437) (ligand)” the binding was “binds”.

From patent US20160084825A1
